Assay: Encapsulation of camptothecin by peptide-GdNPs, fluorescence spectroscopy
Assay type: physicochemical

## CC[C@@]1(O)C(=O)OCc2c1cc1n(c2=O)Cc2cc3ccccc3nc2-1 [camptothecin]
1:1 molar ratio, after 2-h incubation, blue shift
  fluorescence emission maximum of CPT in the presence of [(WR)5C]-GdNPs: 417 nm
CPT alone
  fluorescence emission maximum of CPT alone: 432 nm
